Measurements from the supplement of paper PMC12823440, “Inhibitors supercharge kinase turnover through native proteolytic circuits” (Nature, 2025).
Counter-ions that a name gives are not always drawn. The list shows a part of the results. Hit calls seldom repeat between salt and free forms of one compound.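 Kinases, fused to nanoluciferase, were expressed in K562 cells; luminescence was measured every 4 h from 2 to 18 h as percent of control (DMSO = 100%, positive control = 0%). A time point is decreased if signal falls significantly (2 sigma). Hits were called by the authors by a rule that is not shown; the count of time points alone does not decide it.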

By UniProt entry, the sequences of proteins in these tests, tags left out. Where a name states a change or a piece, a line headed by the entry shows the natural chain unless it says otherwise.
UniProt P07947, whole entry, looked up: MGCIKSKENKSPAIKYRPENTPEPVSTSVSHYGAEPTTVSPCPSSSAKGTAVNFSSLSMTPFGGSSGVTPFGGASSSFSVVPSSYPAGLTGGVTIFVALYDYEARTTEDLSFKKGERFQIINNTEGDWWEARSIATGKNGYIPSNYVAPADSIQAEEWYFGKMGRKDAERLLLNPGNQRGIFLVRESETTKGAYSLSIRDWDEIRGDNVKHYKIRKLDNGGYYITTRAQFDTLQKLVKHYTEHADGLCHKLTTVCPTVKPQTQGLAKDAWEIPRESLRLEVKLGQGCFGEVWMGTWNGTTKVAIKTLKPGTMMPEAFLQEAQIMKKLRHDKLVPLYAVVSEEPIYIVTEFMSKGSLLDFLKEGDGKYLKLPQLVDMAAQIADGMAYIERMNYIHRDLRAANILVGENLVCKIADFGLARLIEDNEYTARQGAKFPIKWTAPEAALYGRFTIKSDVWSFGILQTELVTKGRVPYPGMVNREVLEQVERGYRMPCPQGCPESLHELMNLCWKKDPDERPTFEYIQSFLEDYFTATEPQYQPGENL
UniProt P43403: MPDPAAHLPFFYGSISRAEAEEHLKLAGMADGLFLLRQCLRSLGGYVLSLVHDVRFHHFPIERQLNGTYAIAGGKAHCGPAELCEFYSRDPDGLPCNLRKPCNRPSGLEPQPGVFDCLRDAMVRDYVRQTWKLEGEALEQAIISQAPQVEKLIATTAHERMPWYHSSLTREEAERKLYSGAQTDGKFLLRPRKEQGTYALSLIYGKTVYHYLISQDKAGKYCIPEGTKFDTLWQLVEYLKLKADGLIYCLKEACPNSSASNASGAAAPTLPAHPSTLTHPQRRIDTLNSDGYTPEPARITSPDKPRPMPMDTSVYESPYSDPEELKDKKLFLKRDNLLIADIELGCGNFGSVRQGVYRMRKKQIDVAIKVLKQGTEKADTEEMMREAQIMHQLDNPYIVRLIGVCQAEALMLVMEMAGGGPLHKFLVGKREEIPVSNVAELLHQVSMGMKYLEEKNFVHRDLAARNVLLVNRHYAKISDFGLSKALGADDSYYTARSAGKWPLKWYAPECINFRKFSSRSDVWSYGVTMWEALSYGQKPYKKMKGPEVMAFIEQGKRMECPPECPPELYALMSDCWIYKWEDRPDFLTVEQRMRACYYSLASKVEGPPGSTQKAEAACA
UniProt P11802: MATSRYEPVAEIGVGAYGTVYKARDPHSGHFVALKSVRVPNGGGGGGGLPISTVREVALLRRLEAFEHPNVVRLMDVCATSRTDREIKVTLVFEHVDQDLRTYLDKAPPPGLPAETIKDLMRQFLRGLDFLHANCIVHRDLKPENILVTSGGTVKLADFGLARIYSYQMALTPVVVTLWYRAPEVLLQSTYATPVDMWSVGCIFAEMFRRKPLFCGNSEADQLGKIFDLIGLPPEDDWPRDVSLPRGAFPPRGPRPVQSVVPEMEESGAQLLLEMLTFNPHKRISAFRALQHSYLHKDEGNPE
UniProt P50613: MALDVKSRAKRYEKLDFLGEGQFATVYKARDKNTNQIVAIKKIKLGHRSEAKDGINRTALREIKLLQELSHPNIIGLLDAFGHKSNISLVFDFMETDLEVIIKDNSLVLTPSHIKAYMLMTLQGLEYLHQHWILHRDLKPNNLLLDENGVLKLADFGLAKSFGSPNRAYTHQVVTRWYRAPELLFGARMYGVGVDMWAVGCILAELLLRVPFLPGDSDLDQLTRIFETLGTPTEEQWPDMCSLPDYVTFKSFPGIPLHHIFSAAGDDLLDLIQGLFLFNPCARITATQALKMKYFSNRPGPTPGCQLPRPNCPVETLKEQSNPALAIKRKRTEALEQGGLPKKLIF
UniProt P50750, whole entry: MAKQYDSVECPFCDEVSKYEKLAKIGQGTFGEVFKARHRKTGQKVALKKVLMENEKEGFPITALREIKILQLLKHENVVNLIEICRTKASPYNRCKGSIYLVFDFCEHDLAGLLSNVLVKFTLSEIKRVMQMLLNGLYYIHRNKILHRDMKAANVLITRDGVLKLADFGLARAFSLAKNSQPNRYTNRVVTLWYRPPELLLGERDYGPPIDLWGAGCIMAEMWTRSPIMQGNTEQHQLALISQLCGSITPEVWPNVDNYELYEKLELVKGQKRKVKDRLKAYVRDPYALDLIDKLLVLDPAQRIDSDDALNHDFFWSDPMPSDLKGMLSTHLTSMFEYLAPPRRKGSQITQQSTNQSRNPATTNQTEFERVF

Columns and labels:
Conditions in all cases: K562; 2-18 h
YES1 = YES1 (UniProt P07947); assay: number of time points (of 5) at which kinase-Nluc abundance scored as decreased, DMSO-normalised (count); higher = more persistent destabilization
ZAK = ZAK (UniProt Q9NYL2); assay: as above
ZAP70 = ZAP70 (UniProt P43403); assay: as above
CDK4 = CDK4 (UniProt P11802); assay: number of time points (of 4; 2 h point missing) at which kinase-Nluc abundance scored as decreased, DMSO-normalised (count); higher = more persistent destabilization
CDK7 = CDK7 (UniProt P50613); assay: as above
CDK9 = CDK9 (UniProt P50750); assay: as above

SMILES	number of time points (YES1)	number of time points (ZAK)	number of time points (ZAP70)	number of time points (CDK4)	number of time points (CDK7)	number of time points (CDK9)
CC(=O)NCC(=O)N[C@@H](C)C(=O)N[C@@H](CCC(N)=O)C(=O)N[C@@H](Cc1ccccc1)C(=O)N[C@@H](CO)C(=O)N[C@@H](CCCCN)C(=O)N[C@H](C(=O)N[C@@H](C)C(=O)N[C@@H](C)C(=O)N[C@@H](CCCCN)C(=O)O)[C@@H](C)O (10 µM)	0	0	0	0	0	0
C[C@H](Nc1ccc2c(c1)OCCn1cc(N3C(=O)OC[C@H]3C(F)F)nc1-2)C(N)=O (10 µM)	0	0	0	0	0	0
C[C@]1(O)C[C@@](N)(c2ccc(-c3nc4n(c3-c3ccccc3)COc3ccncc3-4)cc2)C1 [TAS-117 (hydrochloride)] (10 µM)	0	0	0	0	0	0
NC(=O)c1cccc2c(N[C@H](CN3CCC3)c3ccc(Cl)c(C(F)(F)F)c3)ncnc12 (10 µM)	0	0	0	0	0	0
N#Cc1cn([C@@H]2O[C@H](CO)[C@@H](O)[C@H]2O)c2nc[nH]c(=O)c12 [Jaspamycin] (10 µM)	0	0	0	0	0	0
C=CC(=O)Nc1cc(C(=O)NC)cc(-c2n[nH]c3ccccc23)c1 (10 µM)	0	0	0	0	0	0
NC(=O)c1nc(-c2c(F)cccc2Cl)oc1Nc1ccc(C(=O)N2CCOCC2)cc1 (10 µM)	0	0	0	0	0	0
C=C[C@H]1[C@H](O[C@@H]2O[C@H](CO)[C@@H](O)[C@H](O)[C@H]2O)OC=C(C(=O)OC)[C@H]1CCOC(=O)c1cc(O)c(O)c(O)c1 [Cornuside] (10 µM)	0	0	0	0	0	0
O=c1ccc2cc(O)c(O)cc2o1 [Esculetin] (10 µM)	0	0	0	0	0	0
COc1c(OCCCN2CCOCC2)ccc2c3n(c(=NC(=O)c4cnc(N)nc4)nc12)CCN3 [Copanlisib (dihydrochloride)] (10 µM)	2	2	0	0	3	4
CC(C)[C@H](CO)Nc1nc(Nc2ccc(C(=O)O)c(Cl)c2)c2ncn(C(C)C)c2n1 [Purvalanol B] (10 µM)	0	0	0	0	0	0
Cc1cc(=O)[nH]c(=S)[nH]1 [Methylthiouracil] (10 µM)	0	0	0	0	0	0
COC(=O)c1cc2c(OC(C)C)cc(OC(C)C)cc2[nH]1 (2.5 µM)	0	0	0	0	0	0
O=c1[nH]nc(Sc2ncc([N+](=O)[O-])s2)n1-c1ccc2c(c1)OCCO2 (2.5 µM)	0	0	0	0	0	0
Cc1cc(F)c(Nc2ncnc3cc(OCc4ccccc4)ccc23)cc1O (10 µM)	0	0	0	0	0	0
COc1ccc(S(=O)(=O)N(CCO)c2ccccc2CN(C)CC=Cc2ccc(Cl)cc2)cc1 (2.5 µM)	0	0	0	0	0	0
COc1ccc2c(c1)C[C@H](C(=O)Nc1ccc(-c3cn[nH]c3)cc1OCCN(C)C)CO2 [Chroman 1] (10 µM)	0	0	0	0	0	0
O=C(c1ccc(NS(=O)(=O)c2cccc3cccnc23)cc1)N1CCN(CC2CC2)CC1 [Mitapivat] (10 µM)	0	0	0	0	0	0
COc1cccc(Nc2ncnn3ccc(CN4CC[C@@H](N)[C@H](O)C4)c23)c1 (2.5 µM)	0	0	0	0	2	0
C[C@@]12CCc3occc3[C@H]1CC[C@@]13C[C@@H](CC[C@H]12)[C@@](O)(CO)C3 [Cafestol] (10 µM)	0	0	0	0	0	0
COc1cc2nccc(Oc3ccc(NC(=O)Nc4ccc(F)cc4F)c(F)c3)c2cc1OC (10 µM)	0	0	0	0	2	0

A second format for part of the listing above.
SMILES | number of time points (YES1) | number of time points (ZAK) | number of time points (ZAP70) | number of time points (CDK4) | number of time points (CDK7) | number of time points (CDK9)
N#Cc1cn([C@@H]2O[C@H](CO)[C@@H](O)[C@H]2O)c2nc[nH]c(=O)c12 [Jaspamycin] (10 µM) | 0 | 0 | 0 | 0 | 0 | 0
COc1ccc(S(=O)(=O)N(CCO)c2ccccc2CN(C)CC=Cc2ccc(Cl)cc2)cc1 (2.5 µM) | 0 | 0 | 0 | 0 | 0 | 0
COc1ccc2c(c1)C[C@H](C(=O)Nc1ccc(-c3cn[nH]c3)cc1OCCN(C)C)CO2 [Chroman 1] (10 µM) | 0 | 0 | 0 | 0 | 0 | 0
O=C(c1ccc(NS(=O)(=O)c2cccc3cccnc23)cc1)N1CCN(CC2CC2)CC1 [Mitapivat] (10 µM) | 0 | 0 | 0 | 0 | 0 | 0
COc1cccc(Nc2ncnn3ccc(CN4CC[C@@H](N)[C@H](O)C4)c23)c1 (2.5 µM) | 0 | 0 | 0 | 0 | 2 | 0
C[C@@]12CCc3occc3[C@H]1CC[C@@]13C[C@@H](CC[C@H]12)[C@@](O)(CO)C3 [Cafestol] (10 µM) | 0 | 0 | 0 | 0 | 0 | 0
